The values that follow are results of earlier work, collected in US11504319B2, “Process of coloring keratinous material comprising the use of an organosilicon compound, an effect pigment, a further coloring compound and a film-forming polymer III” (Henkel AG & Co. KGaA, priority 2019, dated 2022).

For this series the following is noted: 25° C.

SMILES strings stand for the structures.

Regarding `CCN(Cc1cccc(S(=O)(=O)[O-])c1)c1ccc(C(=C2C=CC(=[N+](CC)Cc3cccc(S(=O)(=O)[O-])c3)C=C2)c2ccccc2S(=O)(=O)[O-])cc1.[Na+].[Na+]` [Acid Blue 9], the solubility in water result is listed as “more than 20 % by weight”.
